Source: paper PMC3371764
Results are given in words; binding and its absence hold for the method and conditions named. In cells and extracts the contact can be indirect. Some entries that bind do so weakly or less than the wild type.

Chains of the proteins cited; added tags and fusions are not shown.
UniProt Q9UMS4: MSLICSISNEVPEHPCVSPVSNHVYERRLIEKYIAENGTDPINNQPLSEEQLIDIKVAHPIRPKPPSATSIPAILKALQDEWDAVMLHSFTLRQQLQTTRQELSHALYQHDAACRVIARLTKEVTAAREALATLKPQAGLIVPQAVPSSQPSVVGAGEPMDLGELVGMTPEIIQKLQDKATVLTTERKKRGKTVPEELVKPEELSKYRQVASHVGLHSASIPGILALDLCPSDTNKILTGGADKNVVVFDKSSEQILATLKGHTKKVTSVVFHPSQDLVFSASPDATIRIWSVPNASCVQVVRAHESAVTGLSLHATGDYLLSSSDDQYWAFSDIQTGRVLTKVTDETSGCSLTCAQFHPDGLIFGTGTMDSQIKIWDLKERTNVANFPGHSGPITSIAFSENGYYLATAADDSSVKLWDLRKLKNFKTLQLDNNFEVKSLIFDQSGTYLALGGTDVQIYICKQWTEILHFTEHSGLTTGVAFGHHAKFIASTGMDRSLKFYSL
UniProt Q99459: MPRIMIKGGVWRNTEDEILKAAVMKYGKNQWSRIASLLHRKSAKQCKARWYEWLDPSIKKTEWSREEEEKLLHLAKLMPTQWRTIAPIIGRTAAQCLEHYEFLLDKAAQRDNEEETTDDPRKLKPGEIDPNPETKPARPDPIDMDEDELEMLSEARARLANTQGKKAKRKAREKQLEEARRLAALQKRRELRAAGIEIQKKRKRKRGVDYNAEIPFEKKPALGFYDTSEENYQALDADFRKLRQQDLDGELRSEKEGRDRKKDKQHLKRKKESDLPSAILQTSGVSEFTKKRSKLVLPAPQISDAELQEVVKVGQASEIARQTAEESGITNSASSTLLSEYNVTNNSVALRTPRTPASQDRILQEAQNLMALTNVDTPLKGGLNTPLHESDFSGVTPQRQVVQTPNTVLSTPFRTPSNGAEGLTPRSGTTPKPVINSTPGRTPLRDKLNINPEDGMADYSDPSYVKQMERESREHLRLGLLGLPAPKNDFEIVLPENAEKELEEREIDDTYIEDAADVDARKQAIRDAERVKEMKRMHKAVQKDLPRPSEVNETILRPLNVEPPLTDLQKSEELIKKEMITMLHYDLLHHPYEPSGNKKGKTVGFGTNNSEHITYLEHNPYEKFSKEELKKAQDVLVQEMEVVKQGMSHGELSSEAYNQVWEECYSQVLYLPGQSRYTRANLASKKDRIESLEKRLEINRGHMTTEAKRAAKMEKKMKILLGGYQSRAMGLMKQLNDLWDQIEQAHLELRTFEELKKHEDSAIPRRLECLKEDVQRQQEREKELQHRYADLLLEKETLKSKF

Molecular target: GFP-tagged SNEV (SNEV^hPrp19/hPso4) (UniProt Q9UMS4)
Assay: co-IP; GFP-Trap beads (ChromoTek) with cleared lysate of GFP-SNEV-Hela cells (1 mg total protein), 1 h at 4°C; lysis buffer 50 mM Hepes-KOH pH 7.5, 150 mM KCl, 1% Triton X-100; cells treated with 100 μM H2O2 or left untreated; Western blot

- binding: binds
Substance: CDC5L (from UniProt Q99459 1-802)
